PubChem BioAssay AID504582 (Broad Institute, 2011)
The whole screen tested about 340,000 compounds, of which about 2,300 (0.68%) were called active. The shares of active, inactive and inconclusive entries below differ from those in the screen. Rule as the data show it: active = growth rescue above about 28% (passing the limit was not always enough); inconclusive = no clear call, values can overlap the other calls.

Test: rescue of yeast from PfHsp40 toxicity, primary screen, S. cerevisiae, ATP luminescence (AID 504582);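 also: yeast W303a lacking pdr1 and pdr3 grown in galactose medium; growth measured after three days at 30 °C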
Conditions: S. cerevisiae expressing PfHsp40, growth rescue, at 12.5 µM, stronger effect = higher value

| SMILES | growth rescue |
| --- | --- |
| Clc1cccc(N/N=C(\Cc2nc3ccccc3[nH]2)c2ccccc2)c1 | active: 426% |
| O=C(c1nc2ncccn2n1)N1CCN(c2ccc(F)cc2)CC1 | inconclusive: 27.4% |
| CCOC(=O)/C(C#N)=C/c1cccc(C)c1 | inactive: 0.998% |
| CCOC(=O)c1sc2nc(NC(=O)C3CCCCC3)sc2c1C | inconclusive: 53.6% |
| Cc1ccc(NC(=O)c2ccc(Cl)c(NC(=O)c3cccs3)c2)cc1 | active: 35.5% |
| O=C(COc1ncnc2ccccc12)c1ccc(Cl)cc1 | inconclusive: 32% |
| Cc1nnc(N/N=C/c2cccc(OCc3ccc(Cl)c(Cl)c3)c2)n1N | active: 38.1% |
| Cc1ccc(-n2c(C)cc(C(=O)COC(=O)c3ccc[nH]c3=O)c2C)cc1C | inconclusive: 259% |
| CCOC(=O)c1ccccc1Nc1cn(C(C)=O)c2ccccc12 | inactive: -0.779% |
| COc1ccc(C(NC(=O)CC(C)C)c2c(O)ccc3ccccc23)cc1 (stereo not given) | active: 33.3% |
| O=C(Nc1ccccc1N1CCCCC1)c1cccc([N+](=O)[O-])c1 | inconclusive: 58.4% |
| O=C(NC(=S)NCc1ccc2c(c1)OCO2)c1ccccc1 | active: 51.7% |
| O=C(Nc1ccc(-c2cn3ccsc3n2)cc1)C1COc2ccccc2O1 (stereo not given) | inconclusive: 34.9% |
| COc1ccc(C(=O)NC(=S)Nc2ccc3oc(=O)ccc3c2)cc1 | inconclusive: 30.8% |
| Fc1cc(F)cc(Nc2nc(Cl)nc(NC3CCCC3)n2)c1 | inconclusive: 97.9% |
| Cc1c2cc[n+](CCN3CCCCC3)cc2c(C)c2c1[nH]c1ccc(O)cc12 | active: 52.9% |
| CN(C)c1ccc(O)c2c1CC1CC3C(N(C)C)C(=O)C(C(N)=O)=C(O)[C@@]3(O)C(=O)C1=C2O (stereo not given in full) | inconclusive: 30.8% |
| CCOc1ccc(C(C)(N)C(=O)O)cc1 (stereo not given) | inactive: 1.87% |
| Cc1ccc2c(c1)C1CN(C)CCC1N2C(=S)Nc1ccc(Cl)cc1Cl (stereo not given) | inconclusive: 83% |
| Oc1ccc(COCc2ccccc2)c2cccnc12 | inconclusive: 43.6% |
| CC(=O)N(C(C)=O)N1C(=O)/C(=C/c2ccc(Cl)cc2)SC1=S | inconclusive: 145% |
| O=C(Nc1nncs1)c1ccc(S(=O)(=O)c2ccccc2)cc1 | active: 173% |
| CC(C)=CCc1c(O)cc2c(c1O)C(=O)CC(c1ccc(O)cc1)O2 (stereo not given) | inconclusive: 229% |

| SMILES | growth rescue |
| --- | --- |
| O=C(/C=C/c1ccccc1Cl)c1ccc(O)cc1 | inconclusive: 26.2% |
| Cc1cccc(Nc2nc(N)c([N+](=O)[O-])c(N3CCC(C)CC3)n2)c1 | inconclusive: 58.2% |
| O=S1(=O)CCOC[C@H](CC2CCCCC2)N1Cc1ccccc1F | inconclusive: 25.5% |
| COc1cccc(OC)c1CNC(=O)CCSCc1ccccc1F | inactive: -0.284% |
| CC(C)n1c(O)c(C2c3cc(Cl)ccc3Oc3[nH]c(=O)n(C(C)C)c(=O)c32)c(=O)[nH]c1=O (stereo not given) | active: 281% |
| O=Cc1cn(-c2ccccc2)nc1-c1ccc2c(c1)OCCO2 | inconclusive: 28.5% |
| CC1=CC2C(C(O)CC3(C)C2CC(C)C32OCOC23COCO3)C2(C)C/C(=C\O)C(=O)C=C12 (stereo not given) | inconclusive: 92.2% |
| CN(C)c1ccc(/C=N/NC(N)=S)cc1[N+](=O)[O-] | inactive: 0.0475% |
| CN(C)c1ccc(CN(C(=O)C2COc3ccccc3O2)C2CCS(=O)(=O)C2)cc1 (stereo not given) | inconclusive: 39.1% |
| COc1cc(-c2nc3ccccn3c2NCc2ccccc2)ccc1SC1CCCCC1 | inconclusive: 105% |
| O=C1c2ccccc2NC(c2ccc([N+](=O)[O-])cc2)N1O (stereo not given) | active: 36.9% |
| Cc1ccc(S(=O)(=O)Nc2ccc3oc(=O)sc3c2)c(C)c1 | inconclusive: 42.6% |
| COc1cccc(-c2cc3c(=O)n(-c4ccccc4)c(=S)[nH]c3s2)c1 | inactive: 5.24% |
| N#CCSc1nnc(-c2ccccc2)c(-c2ccccc2)n1 | inactive: 0.833% |
| O=C1Nc2ccc([N+](=O)[O-])cc2C1(O)N1CCCCCC1 (stereo not given) | inactive: -1.03% |
| CCN(CC)c1ccc(C2C3CCCCC3(O)CCN2CC(=O)N2CCCCC2)cc1 (stereo not given) | inconclusive: 31.4% |
| Cn1c(=O)[nH]c(=O)c2c1nc(N1CCCCCC1)n2CCN1CCCCCC1 | inconclusive: 29.2% |
| CCOC(=O)C1=NN(c2ccccc2)C(=O)/C1=C\c1ccc(N(C)C)cc1 | active: 81.3% |
| CC(C)(C)C(=O)NC(=S)NNC(=O)c1sc2ccccc2c1Cl | inconclusive: 68% |
| O=C(NCc1ccccn1)c1cc(-c2ccccc2Cl)on1 | inconclusive: 28.4% |
| COc1ccc(CN2CCN(Cc3cccc(F)c3)CC2)cc1OC | inconclusive: 68.3% |
| Cc1ccc(C(=O)C(OC(=O)c2c(C)cc(=O)oc2C)c2ccccc2)cc1 (stereo not given) | inconclusive: 25.8% |

As entered above.
Value of CCN(CC)c1ccc(C2C3CCCCC3(O)CCN2CC(=O)N2CCCCC2)cc1 (stereo not given) under growth rescue: inconclusive: 31.4%
Value of CC(C)n1c(O)c(C2c3cc(Cl)ccc3Oc3[nH]c(=O)n(C(C)C)c(=O)c32)c(=O)[nH]c1=O (stereo not given) under growth rescue: active: 281%
